The values that follow come from patent US20250114462A1, “HYDROPHILIC FUNCTIONALIZED PARTICLES IN THE DELIVERY OF HYDROPHOBIC DRUGS” (NEW JERSEY INSTITUTE OF TECHNOLOGY, priority 2023, published 2025).

This data set is described as follows: In vitro dissolution profile (USP-42 paddle method). It is filed as physicochemical. As to the method:
Dissolution measurements were carried out using USP-42 paddle method with Symphony 7100 Distek dissolution instrument. Agilent 8453 model UV-Visible spectrophotometer was used at a wavelength at 295.0 nm for the reference drug Griseofulvin standard absorbance measurements that calibrated to measure the formulation polymer incorporated drugs concentration and dissolution percentage estimation.

Take `Cc1cc(NS(=O)(=O)c2ccc(N)cc2)no1` [Sulfamethoxazole (SMZ), sulfamethoxazole]: the Initial dissolution rate was 186.5 µg/min. Further, the “50% dissolution time (T50)” value (composites with 0.5 to 1.0% of HFP) amounted to 41.
